Laboratory results from publication PMC9344649, “Involvement of MdWRKY40 in the defense of mycorrhizal apple against fusarium solani”.
The exact form of at least one protein or probe is not confirmed. Negatives hold for the conditions tested. Protein sequences can lack the tags named with them.

Target: T1, MdWRKY40 (Malus domestica) (UniProt A0A7S5ATZ6)
T1 sequence (looked up, limits assumed): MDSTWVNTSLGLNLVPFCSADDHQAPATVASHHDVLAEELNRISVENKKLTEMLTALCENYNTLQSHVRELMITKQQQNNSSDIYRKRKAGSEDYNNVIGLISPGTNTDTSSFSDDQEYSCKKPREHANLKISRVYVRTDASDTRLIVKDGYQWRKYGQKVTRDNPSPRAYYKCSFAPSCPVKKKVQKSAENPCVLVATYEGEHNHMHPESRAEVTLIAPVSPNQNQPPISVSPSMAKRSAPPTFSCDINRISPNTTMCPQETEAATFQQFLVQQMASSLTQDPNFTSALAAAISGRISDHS
Assay: EMSA
Details: EMSA: binding buffer not specified, 24 °C, 30 min; salt and pH not stated; recombinant protein; protein details: His tag, pET-32a(+) fusion

“GATTCCGTCCGACCTACTATTTGACCCTCCGACCTTTTCCAAGTCA / TGACTTGGAAAGGTCGGAGGGTCAAATAGTAGGTCGGACGGAATC [proMdGLU W-box 1 probe]”: no binding.
